PubChem BioAssay AID493014 (National Center for Advancing Translational Sciences (NCATS), 2011)
The other results are listed elsewhere or left out. The main result of the screen is listed elsewhere. These columns were measured beside it and carry no call. Most of these compounds were active or inconclusive in the main read-out, so they are no random draw. The note in brackets gives the kind of curve behind each potency; many fits are weak.

Assay: qHTS Assay to Find Inhibitors of Chronic Active B-Cell Receptor Signaling
Details: ABC-DLBCL IkBa-CBG/CBR reporter, luminescence ratio (green luciferase fused to IkBa over red control in TMD8 lymphoma cells), 4 h
Method in brief: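 Compounds up to 46 uM were incubated four hours with TMD8 cells whose green CBG68 luciferase is fused to IkappaBalpha; red CBR luminescence normalised the signal, and concentration-effect curves were fitted to fusion, red and ratio data.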

[1] = measured here: CBR red luminescence, cell number

SMILES | AC50 [1] | AC50 (measured here: IkBa-CBG green luminescence)
CC(Sc1ccc(Cl)cc1)C(=O)NNC(=O)c1ccccc1O (stereo not drawn) | 14.1 µM [falling, partial curve, poor fit] | 
O=C(N/N=C/C=C/c1ccccc1)c1cccc(Br)c1 | 2 µM [falling, partial curve, poor fit] | 
Cc1ccc(NC(=O)Cc2ccsc2)cc1S(=O)(=O)N1CCOCC1 | 13 µM [rising, partial curve, poor fit] | 
CCc1ccc(C(=O)NNc2cc(Cl)ccc2Cl)cc1 | 35.5 µM [falling, partial curve, poor fit] | 
O=C(c1ccc(F)cc1)c1cn(Cc2ccc(F)cc2)c2cc3c(cc2c1=O)OCCO3 | 1.64 µM [rising, full curve, poor fit] | 
O=C1CN(C(=O)CN2CCCC2)C(c2ccccc2)c2cc(Br)ccc2N1 (stereo not drawn) | 6.51 µM [falling, partial curve, poor fit] | 
CCCOc1cccc(NC(=O)c2cc(C)oc2C)c1 | 22.4 µM [falling, single point] | 
C=CCCC(=O)Nc1nc(C)c(-c2csc(Nc3cccc(OC)c3)n2)s1 | 22.4 µM [falling, partial curve, poor fit] | 
COC(=O)c1scc(C)c1N1C(=O)c2ccccc2C1=O | 35.5 µM [rising, partial curve, poor fit] | 
CCOC(=O)Cc1csc(NC(=O)c2ccc3ncsc3c2)n1 | 8.91 µM [falling, partial curve] | 
COc1ccccc1C(=O)Nc1nc(-c2ccc(S(=O)(=O)N3CCOCC3)cc2)cs1 | 20.6 µM [falling, partial curve] | 
COc1ccc(N2CCN(Cc3nc4c(c(=O)n(C)c(=O)n4C)n3CCc3ccccc3)CC2)cc1 | 29.1 µM [rising, single point] | 
CCC(=O)NCc1cc(-c2nn(C)c(=O)c3ccccc23)ccc1OC | 35.5 µM [rising, single point] | 6.31 µM [falling, partial curve]
Cn1nnnc1SCc1ccc(C(=O)Nc2nccs2)cc1 | 0.651 µM [falling, partial curve, poor fit] | 
COc1cc([N+](=O)[O-])ccc1NC(=O)CN1CCc2cc(OC)c(OC)cc2C1 | 8.91 µM [falling, partial curve] | 
O=C(NCCOc1ccc(F)cc1)C1CCN(S(=O)(=O)c2ccccc2)CC1 | 8.91 µM [rising, partial curve, poor fit] | 
COc1nc(-c2ccccc2)cc(-c2ccccc2)n1 | 20.6 µM [falling, partial curve] | 
Cc1ccccc1C(=O)NNC(=O)c1cccc([N+](=O)[O-])c1 | 3.98 µM [falling, partial curve] | 
CC1CCN(CC(=O)c2c[nH]c3ccccc23)CC1 | 10 µM [falling, partial curve] | 
CCOc1ccc(/C(C)=N/NC(=O)C(OC)c2ccccc2)cc1 (stereo not drawn) | 35.5 µM [rising, single point] | 
CCOc1ccc(C(C(=O)NC2CCCC2)N(Cc2ccccc2)C(=O)c2nsc(Cl)c2Cl)cc1 (stereo not drawn) | 2.06 µM [falling, partial curve, poor fit] | 

Pulled one by one from above:
SMILES | AC50 [1] | AC50 (measured here: IkBa-CBG green luminescence)
C=CCCC(=O)Nc1nc(C)c(-c2csc(Nc3cccc(OC)c3)n2)s1 | 22.4 µM [falling, partial curve, poor fit] | 
CC(Sc1ccc(Cl)cc1)C(=O)NNC(=O)c1ccccc1O (stereo not drawn) | 14.1 µM [falling, partial curve, poor fit] | 
COc1ccccc1C(=O)Nc1nc(-c2ccc(S(=O)(=O)N3CCOCC3)cc2)cs1 | 20.6 µM [falling, partial curve] | 

(listing goes on)

SMILES | AC50 [1] | AC50 (measured here: IkBa-CBG green luminescence)
NC(=O)CNC1CC(=O)N(CCc2ccccc2)C1=O (stereo not drawn) | 25.9 µM [rising, single point] | 
O=C(CCCN1C(=O)/C(=C/c2ccccc2Cl)SC1=S)N1CCOCC1 | 14.1 µM [falling, partial curve] | 
CCOc1ccc(C2C(C(=O)c3ccco3)=C(O)C(=O)N2Cc2cccnc2)cc1 (stereo not drawn) | 5.8 µM [rising, single point] | 
COC(=O)N1C(=O)[C@@](Cc2ccccc2)(c2ccccc2)N1C(=O)OC | 2.51 µM [falling, partial curve, poor fit] | 
CC(C)C(NC(=S)NCc1ccccc1)C(=O)O (stereo not drawn) | 5.17 µM [falling, full curve, poor fit] | 
COc1ccc(N(CC(=O)N/N=C/c2ccc(OC)c(OC)c2)S(=O)(=O)c2ccccc2)cc1 | 35.5 µM [falling, single point] | 
CCN1C(=O)C(=O)N(CC(=O)N2CCC(C)Sc3ccccc32)C1=O (stereo not drawn) | 25.9 µM [rising, single point] | 
Clc1cccc(-c2nc(NCC3CCCO3)c3ccccc3n2)c1 (stereo not drawn) | 35.5 µM [falling, single point] | 
C=CCc1cc(Cl)ccc1OCCOCCN(C)C | 5.01 µM [falling, full curve] | 
Cc1cc(=O)oc2c(C)c(OCC(=O)N3CCN(c4ccc(F)cc4)CC3)ccc12 | 5.01 µM [rising, single point] | 
Cc1cc(C(=O)Nc2nnc(C(F)(F)F)s2)cs1 | 0.708 µM [falling, full curve] | 
O=C(NCc1ccccn1)Nc1ccccc1 | 12.6 µM [falling, partial curve, poor fit] | 
Cc1cc(OCCCCNC(C)C)cc(C(C)C)c1 | 29.1 µM [falling, single point] | 
CCc1ccc(S(=O)(=O)NCCc2csc3nc(-c4ccccc4)nn23)s1 | 15.8 µM [falling, single point] | 
O=C(Nc1nc2cc3c(cc2s1)OCO3)C1CCCCC1 | 2 µM [falling, full curve] | 
CC(C)(C)NCCOc1ccc(Br)cc1 | 13 µM [rising, single point] | 
O=C(CC1C(=O)NCCN1C(=O)Nc1ccc(F)cc1F)Nc1ccc(F)cc1 (stereo not drawn) | 0.708 µM [falling, partial curve, poor fit] | 
COc1cc(/C=N/NC(=O)c2cc(C3CC3)[nH]n2)ccc1O | 22.4 µM [falling, single point] | 
COC(=O)COc1ccc(-c2ccccc2)cc1C=O | 12.6 µM [rising, partial curve] | 
COc1ccc(C)cc1NC(=O)NCc1ccco1 | 5.01 µM [rising, partial curve, poor fit] | 
COc1ccc(CCN(C)C(=O)c2ccc3c(=O)n4c(nc3c2)CCCCC4)cc1OC | 1.46 µM [rising, full curve] | 
